Results from the supplement of paper PMC3334620.
The full ranking holds about 33,000 sequences; the median of “E-score (-0.5 to 0.5)” is about -0.015, and the highest 2% start at about 0.3. The list shows a part of the results.

Target: T1, Abf1 (UniProt P14164)
T1 sequence: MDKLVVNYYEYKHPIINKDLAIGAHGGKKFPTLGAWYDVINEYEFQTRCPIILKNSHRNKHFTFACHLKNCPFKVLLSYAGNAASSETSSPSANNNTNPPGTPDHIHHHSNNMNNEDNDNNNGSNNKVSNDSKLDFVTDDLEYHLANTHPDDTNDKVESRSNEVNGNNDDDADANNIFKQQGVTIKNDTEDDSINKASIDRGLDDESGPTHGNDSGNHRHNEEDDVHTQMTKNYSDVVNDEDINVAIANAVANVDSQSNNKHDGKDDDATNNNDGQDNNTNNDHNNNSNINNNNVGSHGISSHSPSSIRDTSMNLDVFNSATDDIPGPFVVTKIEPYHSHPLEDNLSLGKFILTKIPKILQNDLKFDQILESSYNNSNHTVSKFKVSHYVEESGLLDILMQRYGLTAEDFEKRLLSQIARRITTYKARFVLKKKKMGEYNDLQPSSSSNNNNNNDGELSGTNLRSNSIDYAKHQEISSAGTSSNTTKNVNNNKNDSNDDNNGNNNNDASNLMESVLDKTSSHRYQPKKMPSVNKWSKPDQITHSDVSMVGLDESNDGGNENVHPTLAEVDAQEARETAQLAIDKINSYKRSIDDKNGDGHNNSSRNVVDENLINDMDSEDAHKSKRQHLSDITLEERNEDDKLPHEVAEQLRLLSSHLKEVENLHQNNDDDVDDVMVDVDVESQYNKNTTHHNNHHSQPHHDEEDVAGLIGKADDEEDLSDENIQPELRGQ
Test: PBM E-score (8-mer binding enrichment) (E-score (-0.5 to 0.5)); higher = stronger / more preferred TF binding
Details: protein concentration: 200 nM; construct: GST-full length
Outline: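 Universal all-10-mer Agilent arrays, double-stranded by primer extension on fresh or once-stripped slides, were probed with about 100-200 nM GST-tagged yeast transcription factors made by PURExpress. Fluorescent anti-GST detected bound protein, and masliner normalised the scans. E-scores from the Universal PBM Analysis Suite were given to each ungapped eight-base word pooled with its reverse complement.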

Sequence	PBM E-score
AATCTGAT	0.22
TGGCTCAA	-0.0517
CATTGCGA	0.00247
AGTTCCTG	-0.136
CGTTCAAA	0.199
CCAGGCAA	-0.0297
CTGCACCA	-0.194
CCTAGTAC	0.0377
TGCAACCA	-0.0685
GTGGTGAA	-0.0783
CCTGGACA	-0.0296
ACGACGGG	0.304
CTCATGCC	-0.0956
AGCGAGAC	-0.193
CTTTTGTA	0.105
ATTCCCCA	-0.136
GGTTATCA	0.272
CTTCTGGC	-0.17
AACTTTGT	-0.0289
CAGTAACC	-0.0485
CACGGGCA	0.00373
CCCTTAAC	-0.163
AGACCCTC	-0.268
ATCACTTC	0.376
GGACCTAA	-0.114

Retrieved one by one from the entries so far (7):
Sequence	PBM E-score
ATCACTTC	0.376
CTTTTGTA	0.105
TGCAACCA	-0.0685
CCTGGACA	-0.0296
CCTAGTAC	0.0377
GGTTATCA	0.272
GTGGTGAA	-0.0783

Further results:

Sequence	PBM E-score
GGTGTGGA	-0.0215
CATTCACG	0.123
CGTGGAAG	0.113
CGCCTTAA	0.0103
GGGGGACA	-0.0703
AGAGGTCA	0.0222
CGCCGTGA	0.232
CACGGGGC	0.143
CGCCATGC	-0.0441
ATATAATA	0.0977
GGGTAACA	-0.205
CACGCGTC	0.227
CCTTTGCA	0.0165
GCTAAGTA	0.126
CCGTATTC	0.25
AGCGGCCT	-0.203
AGCTGACA	-0.181
GCTGCGCA	-0.185
AGTTGTAG	0.0291
ACGCTCGA	0.00667
ACAAGGGA	-0.0819
TAAACTGA	0.0308
CACACCGC	-0.155
AACATAGG	-0.0696
AGTAAGAG	-0.18

Sequence	PBM E-score
ACGTCGGC	0.211
CCTCCAAA	-0.116
GCGTCACA	0.02
AAAGGCTA	-0.0405
ACCTATTC	-0.0249
ACCGCACA	-0.186
AAGTCCGG	0.107
AAATCGGA	-0.0585
GTCATTGA	0.0887
GATTCTAA	-0.03
ATCTATCG	0.0184
AGCAAGTC	-0.261
ATAACTGC	0.00386
ATTTTCTG	-0.0421
AAGCCCCA	-0.232
ACGGAGCT	0.0853
CGTACTGA	0.205
ACGACGTC	0.141
CAAGAGAA	-0.00821
CGCCCCTA	-0.0884
AACAGTAG	0.0252
CGGACTGA	-0.16
GTAACACA	0.0484
AAAGTCGC	0.128
AATCAGAG	0.011

At a glance, part of the list above:
Sequence	PBM E-score
ACCTATTC	-0.0249
ACCGCACA	-0.186

More entries follow.

Sequence	PBM E-score
GGACTAAA	0.0347
CGATCGGC	0.0275
CCCGAAGA	-0.25
CCAAACGA	0.0941
ATGGGCAG	-0.0345
AGTCGACC	-0.0725
GCATCCGA	-0.146
TACGGCCA	0.247
GCGAGAAC	-0.095
AACTAACG	0.181
ACCTGTCT	-0.149
ACTTAGCT	-0.196
ATCTGTAA	-0.183
CGGCTTTA	-0.106
GCCCCGCA	-0.278
ACAGCACA	-0.0943
ACACCCCG	-0.142
CTGCTTGC	-0.128
CAATTGAG	-0.185
GCCTAGGA	-0.178
AGGTCGCC	-0.0212
AGAGTAGA	0.0737
CAAACACA	-0.0026
CAAGCTAG	-0.112
CGCGACGA	0.267

Sequence	PBM E-score
ATGAAGCG	-0.164
ACCGGTTC	-0.222
CATCTAGC	0.0327
CACGTTCC	-0.104
TGGGTCAA	-0.0233
CTTTATTA	0.121
CGACGACG	0.177
CATCCGCA	0.148
AAACTTAT	0.184
AGGCAAGA	-0.0497
AGATCAGC	0.0336
CCATTACC	-0.146
ATCTCTTC	0.106
ACTCGCGC	-0.147
CGAAAATA	0.131
GAGAGTTA	-0.098
CATACGCA	0.168
AGGACGAC	0.12
AATTTATG	0.147
CACGGCCG	0.228
GATTTTGA	0.259
ACTCATGA	0.14
ACCTCACC	-0.0217
TATATAAA	0.236
CATTCTCA	0.173

Sequence	PBM E-score
GTTGATGA	0.283
CCAATGGG	-0.39
TTTCCAAA	-0.131
AGATTACG	-0.0794
TATAATAA	0.0758
AGACCTTA	-0.0143
ACAATCGC	-0.0937
ACCACGGT	0.119
CCCGTAGA	-0.0409
ACATGCCC	-0.148
AGGTCTAA	-0.106
AAAATACT	-0.0265
AAATATGT	0.334
CAAGTCCG	-0.00708
CCCACCAG	-0.267
ATGAGTCA	0.0874
ATATTCAG	0.102
GCACCCCA	-0.171
ATGAATTG	0.141
AATCAGGG	-0.152
ACGGGACG	0.0216
GTCAGCGA	-0.087
TGTGAACA	0.0252
CCAGCCCC	-0.321
TGGTCAAA	0.111

Sequence	PBM E-score
AATTATGG	0.0208
CATCGTAC	0.382
GTCGACAC	0.122
TACGTAAA	0.27
GTGTTGGA	-0.0385
CACCTTAA	0.0676
CGGGTCAA	-0.204
ACATCCCA	-0.0166
CAATAGAC	0.00301
ATCCCTAC	0.0477
GAGAGGGA	-0.137
AGGCCAAT	0.0234
CCGTTAGG	0.117
AGCTAACA	-0.113
GAGAAGCA	-0.11
CTAATAAA	0.162
AGGCGAAC	0.018
GACGCCCA	-0.113
AACTAAGG	-0.14
GGCTTTGA	-0.0102
CGACCCTC	-0.152
AAGGCGTG	-0.00737
CCTGGCGA	-0.127
ACCGTTTG	0.103
AGGGGTCC	-0.243

Sequence	PBM E-score
AGGGCCCC	-0.28
TGAGCGCA	-0.291
CGCCCAGA	-0.12
TAGCTCAA	-0.127
TACCGTCA	0.262
AAAGTTGC	-0.0857
TGGCAACA	-0.126
CGGAGGAA	-0.228
ATTGTATA	0.216
AAGGGGGA	-0.356
AGGTCTTG	-0.0441
CCTTAGGA	0.00779
TATTTCAA	0.294
CAACAGGC	-0.0572
AATCCAGT	0.0412
AGCATGTG	-0.144
TTGCACAA	-0.0953
CGATCATC	0.157
AAGGCGGT	-0.138
AGGCTAGG	-0.28
TACGCGAA	-0.0737
CATGATGA	0.365
GGATCCAA	0.073
AAGTATCG	-0.012
CCGCTAAA	0.00412

Sequence	PBM E-score
CCCAGCCC	-0.222
ACCGGTGC	-0.0171
AATAGTTC	0.16
AATAACTC	0.0551
CGCGGAAG	-0.166
GCATTGCC	-0.0192
GGAACGTA	-0.0442
ATTTCCAC	0.0755
ATCCGTCC	-0.0687
CGGGTACC	-0.132
GAAACTTC	0.0521
CCCTTACC	-0.0961
ACGAACCG	0.252
AGTGCTGA	-0.018
ACGGCGGC	0.17
ATTAAAGG	0.0968
AGCTCTTG	0.0406
GACGTACC	0.247
ACGCTAGG	-0.282
